From patent US8252764B2, “Compositions and methods of use of targeting peptides against placenta and adipose tissues” (priority 2000, dated 2012)

The sequences below were run on SK-RC-49/APA cells (assay: Cell panning of CX3CX3CX3C phage library on SK-RC-49/APA cells (insert frequency)). Conditions: share of phage inserts, round 3.
Format: cell-based
For CYNLCIRECESICGADGACWTWCADGCSRSC, the “Round 3 (%)” value was 100%.

Same assay, conditions: share of randomly selected phage inserts, round 2
In the case of CAVACWADCQLGC, the “Round 2 (%)” value is reported as 5/— %. For CGTGCAVECEVVC, the “Round 2 (%)” value was 5/— %. In the case of CLGQCASICVNDC, the “Round 2 (%)” value is reported as 5/— %. For CPKVCPRECESNC, the “Round 2 (%)” value was 5/— %. For CSGLCTVQCLEGC, the “Round 2 (%)” value was 5/— %. In the case of CSMMCLEGCDDWC, the “Round 2 (%)” value is reported as 5/— %. For CYNLCIRECESICGADGACWTWCADGCSRSC, the “Round 2 (%)” value was 50%.
